This assay addresses Renilla-HSP90β (UniProt P08238). Description: LUMIER; HEK293T cells stably expressing Renilla-HSP90β, transfected with 1 of 420 protein kinases, treated with 10 µM KBU2046 or vehicle for 3 days; repeated for 17 kinases with TGFβ treatment.

The chains behind the UniProt entries cited, without tags or fusion partners.
UniProt P08238: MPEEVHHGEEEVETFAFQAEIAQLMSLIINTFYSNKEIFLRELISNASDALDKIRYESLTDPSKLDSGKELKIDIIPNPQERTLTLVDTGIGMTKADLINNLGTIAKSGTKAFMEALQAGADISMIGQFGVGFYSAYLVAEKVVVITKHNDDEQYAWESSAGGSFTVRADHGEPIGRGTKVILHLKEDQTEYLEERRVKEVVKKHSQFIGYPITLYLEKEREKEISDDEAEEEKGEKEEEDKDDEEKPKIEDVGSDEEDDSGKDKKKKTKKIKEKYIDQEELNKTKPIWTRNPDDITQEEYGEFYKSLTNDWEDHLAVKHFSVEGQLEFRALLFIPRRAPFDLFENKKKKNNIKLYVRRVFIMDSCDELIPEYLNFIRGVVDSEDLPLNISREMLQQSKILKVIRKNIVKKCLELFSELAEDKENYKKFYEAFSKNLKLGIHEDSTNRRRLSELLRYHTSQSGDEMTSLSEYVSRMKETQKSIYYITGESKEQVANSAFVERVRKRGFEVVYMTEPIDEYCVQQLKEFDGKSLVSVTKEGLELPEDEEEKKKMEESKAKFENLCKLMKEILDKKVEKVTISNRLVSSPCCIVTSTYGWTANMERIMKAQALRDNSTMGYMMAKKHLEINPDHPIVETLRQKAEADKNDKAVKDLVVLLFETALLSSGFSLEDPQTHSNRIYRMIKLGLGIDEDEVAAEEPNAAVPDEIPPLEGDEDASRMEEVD
UniProt Q13546: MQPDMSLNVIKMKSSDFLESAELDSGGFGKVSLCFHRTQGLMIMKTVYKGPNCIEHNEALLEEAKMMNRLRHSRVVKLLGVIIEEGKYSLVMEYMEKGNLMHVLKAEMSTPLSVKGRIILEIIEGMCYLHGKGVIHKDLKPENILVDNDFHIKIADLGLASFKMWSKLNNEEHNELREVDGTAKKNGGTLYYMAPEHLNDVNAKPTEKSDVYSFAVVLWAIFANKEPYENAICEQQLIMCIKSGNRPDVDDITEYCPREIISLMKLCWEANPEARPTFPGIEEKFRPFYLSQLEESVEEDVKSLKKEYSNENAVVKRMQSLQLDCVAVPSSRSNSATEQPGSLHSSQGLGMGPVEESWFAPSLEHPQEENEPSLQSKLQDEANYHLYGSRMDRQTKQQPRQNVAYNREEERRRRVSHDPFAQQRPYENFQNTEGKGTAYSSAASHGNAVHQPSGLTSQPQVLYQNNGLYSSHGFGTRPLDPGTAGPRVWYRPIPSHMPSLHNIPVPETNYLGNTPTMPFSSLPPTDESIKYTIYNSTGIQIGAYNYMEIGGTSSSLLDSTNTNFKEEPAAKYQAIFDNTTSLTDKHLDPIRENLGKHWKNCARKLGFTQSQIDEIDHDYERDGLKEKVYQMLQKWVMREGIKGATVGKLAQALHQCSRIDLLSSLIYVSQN

These are yes or no findings as the source states them, for the method shown. Some entries that bind do so weakly or less than the wild type.

In the case of “RIPK1 (from UniProt Q13546 1-671) (enzyme)”, the binding entry is on record as “binds”.

B1: SGK3 (enzyme, UniProt Q96BR1 1-496)
chain: MQRDHTMDYKESCPSVSIPSSDEHREKKKRFTVYKVLVSVGRSEWFVFRRYAEFDKLYNTLKKQFPAMALKIPAKRIFGDNFDPDFIKQRRAGLNEFIQNLVRYPELYNHPDVRAFLQMDSPKHQSDPSEDEDERSSQKLHSTSQNINLGPSGNPHAKPTDFDFLKVIGKGSFGKVLLAKRKLDGKFYAVKVLQKKIVLNRKEQKHIMAERNVLLKNVKHPFLVGLHYSFQTTEKLYFVLDFVNGGELFFHLQRERSFPEHRARFYAAEIASALGYLHSIKIVYRDLKPENILLDSVGHVVLTDFGLCKEGIAISDTTTTFCGTPEYLAPEVIRKQPYDNTVDWWCLGAVLYEMLYGLPPFYCRDVAEMYDNILHKPLSLRPGVSLTAWSILEELLEKDRQNRLGAKEDFLEIQNHPFFESLSWADLVQKKIPPPFNPNVAGPDDIRNFDTAFTEETVPYSVCVSSDYSIVNASVLEADDAFVGFSYAPPSEDLFL
As to B1, the binding entry is listed as “binds”.

B2: MAP3K6 (enzyme, UniProt O95382 1-1288)
chain: MAGPCPRSGAERAGSCWQDPLAVALSRGRQLAAPPGRGCARSRPLSVVYVLTREPQPGLEPREGTEAEPLPLRCLREACAQVPRPRPPPQLRSLPFGTLELGDTAALDAFYNADVVVLEVSSSLVQPSLFYHLGVRESFSMTNNVLLCSQADLPDLQALREDVFQKNSDCVGSYTLIPYVVTATGRVLCGDAGLLRGLADGLVQAGVGTEALLTPLVGRLARLLEATPTDSCGYFRETIRRDIRQARERFSGPQLRQELARLQRRLDSVELLSPDIIMNLLLSYRDVQDYSAIIELVETLQALPTCDVAEQHNVCFHYTFALNRRNRPGDRAKALSVLLPLVQLEGSVAPDLYCMCGRIYKDMFFSSGFQDAGHREQAYHWYRKAFDVEPSLHSGINAAVLLIAAGQHFEDSKELRLIGMKLGCLLARKGCVEKMQYYWDVGFYLGAQILANDPTQVVLAAEQLYKLNAPIWYLVSVMETFLLYQHFRPTPEPPGGPPRRAHFWLHFLLQSCQPFKTACAQGDQCLVLVLEMNKVLLPAKLEVRGTDPVSTVTLSLLEPETQDIPSSWTFPVASICGVSASKRDERCCFLYALPPAQDVQLCFPSVGHCQWFCGLIQAWVTNPDSTAPAEEAEGAGEMLEFDYEYTETGERLVLGKGTYGVVYAGRDRHTRVRIAIKEIPERDSRFSQPLHEEIALHRRLRHKNIVRYLGSASQGGYLKIFMEEVPGGSLSSLLRSVWGPLKDNESTISFYTRQILQGLGYLHDNHIVHRDIKGDNVLINTFSGLLKISDFGTSKRLAGITPCTETFTGTLQYMAPEIIDQGPRGYGKAADIWSLGCTVIEMATGRPPFHELGSPQAAMFQVGMYKVHPPMPSSLSAEAQAFLLRTFEPDPRLRASAQTLLGDPFLQPGKRSRSPSSPRHAPRPSDAPSASPTPSANSTTQSQTFPCPQAPSQHPPSPPKRCLSYGGTSQLRVPEEPAAEEPASPEESSGLSLLHQESKRRAMLAAVLEQELPALAENLHQEQKQEQGARLGRNHVEELLRCLGAHIHTPNRRQLAQELRALQGRLRAQGLGPALLHRPLFAFPDAVKQILRKRQIRPHWMFVLDSLLSRAVRAALGVLGPEVEKEAVSPRSEELSNEGDSQQSPGQQSPLPVEPEQGPAPLMVQLSLLRAETDRLREILAGKEREYQALVQRALQRLNEEARTYVLAPEPPTALSTDQGLVQWLQELNVDSGTIQMLLNHSFTLHTLLTYATRDDLIYTRIRGGMVCRIWRAILAQRAGSTPVTSGP
Consider B2, for which the binding entry is given as “binds”.

The values are drawn from publication PMC6014988, “Precision therapeutic targeting of human cancer cell motility” (Nature Communications, 2018).
